HELM strings list residues between dots; [ac] is acetyl, [am] amide, other brackets name non-standard units.
Assay: general procedure: Fmoc solid-phase peptide synthesis; Rink-amide MBHA resin, 0.54 mmole/g; HATU / 4-methylmorpholine
Details: whole synthesis, analytical ultra-high performance liquid chromatography and LC/MS

Substance	final HPLC purity
PEPTIDE1{H.[Aib].H.G.T.F.T.S.D.L.S.I.L.L.E.K.K.A.A.Q.E.F.V.E.W.L.L.A.[dE].G.P.S.S.G.A.P.P.P.S.[am]}|PEPTIDE2{[DA18].[gGlu].[OEG].[OEG]}$PEPTIDE2,PEPTIDE1,4:R2-16:R3$$$V2.0	91.68%
PEPTIDE1{H.[Aib].H.G.T.F.T.S.D.L.S.I.L.L.E.K.K.A.A.[Ac3c].E.F.V.E.W.L.L.A.[dE].G.P.S.S.G.A.P.P.P.S.[am]}|PEPTIDE2{[DA18].[gGlu].[OEG].[OEG]}$PEPTIDE2,PEPTIDE1,4:R2-16:R3$$$V2.0	90.58%
PEPTIDE1{H.[Aib].H.G.T.F.T.S.D.L.S.I.L.L.E.K.K.A.A.[Ac4c].E.F.V.E.W.L.L.A.[dE].G.P.S.S.G.A.P.P.P.S.[am]}|PEPTIDE2{[DA18].[gGlu].[OEG].[OEG]}$PEPTIDE2,PEPTIDE1,4:R2-16:R3$$$V2.0	88.49%
PEPTIDE1{H.[Aib].H.G.T.F.T.S.D.L.S.I.L.L.E.K.Q.A.A.[Ac3c].E.F.V.E.W.L.L.A.[dE].G.P.S.S.G.A.P.P.P.S.[am]}|PEPTIDE2{[DA18].[gGlu].[OEG].[OEG]}$PEPTIDE2,PEPTIDE1,4:R2-16:R3$$$V2.0	93.74%
PEPTIDE1{H.[Aib].H.G.T.F.T.S.D.L.S.I.L.L.E.K.Q.A.A.[Ac4c].E.F.V.E.W.L.L.A.[dE].G.P.S.S.G.A.P.P.P.S.[am]}|PEPTIDE2{[DA18].[gGlu].[OEG].[OEG]}$PEPTIDE2,PEPTIDE1,4:R2-16:R3$$$V2.0	94.81%
PEPTIDE1{H.[Aib].H.G.T.F.T.S.D.Y.S.I.L.L.E.K.K.A.A.Q.E.F.V.E.W.L.L.A.G.G.P.S.S.G.A.P.P.P.S.[am]}|PEPTIDE2{[DA18].[gGlu].[OEG].[OEG]}$PEPTIDE2,PEPTIDE1,4:R2-16:R3$$$V2.0	98.03%
PEPTIDE1{H.[Aib].H.G.T.F.T.S.D.Y.S.I.L.L.E.K.K.A.A.Q.E.F.V.E.W.L.L.A.[dE].G.P.S.S.G.A.P.P.P.S.[am]}|PEPTIDE2{[DA18].[gGlu].[OEG].[OEG]}$PEPTIDE2,PEPTIDE1,4:R2-16:R3$$$V2.0	95.15%
PEPTIDE1{H.[Aib].H.G.T.F.T.S.D.Y.S.I.L.L.E.K.K.A.A.[Iva].E.F.V.E.W.L.L.A.G.G.P.S.S.G.A.P.P.P.S.[am]}|PEPTIDE2{[DA18].[gGlu].[OEG].[OEG]}$PEPTIDE2,PEPTIDE1,4:R2-16:R3$$$V2.0	92.44%
PEPTIDE1{H.[Aib].H.G.T.F.T.S.D.Y.S.I.L.L.E.K.Q.A.A.Q.E.F.V.E.W.L.L.A.G.G.P.S.S.G.A.P.P.P.S.[am]}|PEPTIDE2{[DA18].[gGlu].[OEG].[OEG]}$PEPTIDE2,PEPTIDE1,4:R2-16:R3$$$V2.0	93.06%
PEPTIDE1{H.[Aib].H.G.T.F.T.S.D.Y.S.I.L.L.E.K.Q.A.A.Q.E.F.V.E.W.L.L.A.[dE].G.P.S.S.G.A.P.P.P.S.[am]}|PEPTIDE2{[DA18].[gGlu].[OEG].[OEG]}$PEPTIDE2,PEPTIDE1,4:R2-16:R3$$$V2.0	88.34%
PEPTIDE1{H.[Aib].H.G.T.F.T.S.D.Y.S.I.L.L.E.K.Q.A.A.[Ac3c].E.F.V.E.W.L.L.A.[dE].G.P.S.S.G.A.P.P.P.S.[am]}|PEPTIDE2{[DA18].[gGlu].[OEG].[OEG]}$PEPTIDE2,PEPTIDE1,4:R2-16:R3$$$V2.0	92.76%
PEPTIDE1{H.[Aib].H.G.T.F.T.S.D.Y.S.I.L.L.E.K.Q.A.A.[Ac4c].E.F.V.E.W.L.L.A.[dE].G.P.S.S.G.A.P.P.P.S.[am]}|PEPTIDE2{[DA18].[gGlu].[OEG].[OEG]}$PEPTIDE2,PEPTIDE1,4:R2-16:R3$$$V2.0	91.27%
PEPTIDE1{H.[Aib].H.G.T.F.T.S.D.Y.S.K.Y.L.E.K.K.[Aib].A.Q.E.F.V.E.W.L.L.A.G.G.P.S.S.G.A.P.P.P.S.[am]}|PEPTIDE2{[DA18].[gGlu].[OEG].[OEG]}$PEPTIDE2,PEPTIDE1,4:R2-16:R3$$$V2.0	96.69%
PEPTIDE1{H.[Aib].Q.G.T.F.T.S.D.Y.S.I.L.L.E.K.K.A.A.Q.E.F.V.E.W.L.L.A.G.G.P.S.S.G.A.P.P.P.S.[am]}|PEPTIDE2{[DA18].[gGlu].[OEG].[OEG]}$PEPTIDE2,PEPTIDE1,4:R2-16:R3$$$V2.0	96.53%
